Here are results for one molecule from publication PMC9616960.

Results are given in words; binding and its absence hold for the method and conditions named. Binding seen in cells or lysates may run through a third protein. These calls come from enrichment with a bait or labelling near it, and not all partners need be listed. A no says only that the protein was not detected with the bait.

The experiment has as its target T1, Nephrin (not stated (endogenous in glomeruli of rat or mouse)), Q9R044.
T1 chain: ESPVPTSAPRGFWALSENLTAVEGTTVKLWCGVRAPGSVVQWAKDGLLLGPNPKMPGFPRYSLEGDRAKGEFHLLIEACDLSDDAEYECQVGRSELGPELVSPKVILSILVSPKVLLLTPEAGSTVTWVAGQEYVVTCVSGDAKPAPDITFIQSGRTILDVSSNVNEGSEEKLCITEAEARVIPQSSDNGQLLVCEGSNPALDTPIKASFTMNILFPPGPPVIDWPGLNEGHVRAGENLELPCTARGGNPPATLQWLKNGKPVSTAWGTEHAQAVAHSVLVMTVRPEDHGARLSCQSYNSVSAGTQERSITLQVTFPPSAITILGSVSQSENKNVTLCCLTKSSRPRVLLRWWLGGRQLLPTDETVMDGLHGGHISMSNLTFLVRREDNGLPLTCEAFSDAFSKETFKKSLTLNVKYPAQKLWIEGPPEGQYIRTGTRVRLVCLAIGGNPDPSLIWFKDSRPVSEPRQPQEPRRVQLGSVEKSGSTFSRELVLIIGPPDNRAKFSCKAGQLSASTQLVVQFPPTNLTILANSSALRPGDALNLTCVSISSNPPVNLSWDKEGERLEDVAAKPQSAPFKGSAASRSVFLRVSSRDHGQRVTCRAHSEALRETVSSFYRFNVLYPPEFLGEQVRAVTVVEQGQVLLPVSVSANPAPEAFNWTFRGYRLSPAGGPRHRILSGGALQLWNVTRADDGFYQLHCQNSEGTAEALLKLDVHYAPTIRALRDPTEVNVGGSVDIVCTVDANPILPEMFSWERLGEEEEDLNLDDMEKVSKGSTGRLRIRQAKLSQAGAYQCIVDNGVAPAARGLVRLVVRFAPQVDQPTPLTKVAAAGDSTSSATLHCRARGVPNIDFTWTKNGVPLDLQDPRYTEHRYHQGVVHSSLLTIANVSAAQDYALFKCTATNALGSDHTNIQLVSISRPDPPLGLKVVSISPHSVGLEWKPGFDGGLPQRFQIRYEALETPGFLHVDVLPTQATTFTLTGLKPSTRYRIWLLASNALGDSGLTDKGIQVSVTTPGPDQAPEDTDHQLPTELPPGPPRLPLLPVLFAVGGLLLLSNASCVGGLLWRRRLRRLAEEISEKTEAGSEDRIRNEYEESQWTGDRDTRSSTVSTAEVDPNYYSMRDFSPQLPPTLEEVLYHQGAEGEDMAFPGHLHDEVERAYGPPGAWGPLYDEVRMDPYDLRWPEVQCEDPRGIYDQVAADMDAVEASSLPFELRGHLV
Briefly: affinity purification with mass spectrometry; three anti-Nephrin/Neph1 ABs immobilised on magnetic beads, two hours with CL-47 or CL-91 solubilisates of glomerular membrane fractions; eluates by nano-LC-MS/MS; specific: tnR >=0.2 against three target-unrelated ABs/IgG, in at least two anti-Nephrin/Neph1 APs. The settings on record: remark: other sources report otherwise.

B1: Podocin, Q8K4G9 1-383 (protein)
chain: MDSRARSSSRKTHGRGSRSSSRDDKKSKAGRGNRGRARPDAGAERQSAGRTGTREEHRAPAATVVNVDEVRSPGEEGTEVVALLESERPEEGIKPSGLGACEWLLVLSSLIFIIVTFPFSIWFCIKVVQEYERVIIFRLGHLLPGRAKGPGLFFFLPCLDTYHKVDLRLQTLEIPFHEVVTKDMFIMEIDAVCYYRMENASLLLSSLAHVSKAIQFLVQTTMKRLLAHRSLTEILLERKSIAQDVKVALDSVTCVWGIKVERTEIKDVRLPAGLQHSLAVEAEAQRQAKVRVIAAEGEKAASESLRMAAEILSGTPAAVQLRYLHTLQSLSTDKPSTVVLPLPFDMLNLLSSPSNRAQGSINYPSSPKPVEPLNPKRKDSPML
As to B1, the binding entry is reported as “no binding”.
